Data taken from patent US20240279325A1.
No constants are given. Whether binding was seen depends on the method and setting. A result given as binding can be weak or reduced; the word gives no strength.

Chains of the proteins cited; added tags and fusions are not shown. Lines headed by an entry give the natural chain unless they say otherwise; changes in a name come on top.
UniProt P08887: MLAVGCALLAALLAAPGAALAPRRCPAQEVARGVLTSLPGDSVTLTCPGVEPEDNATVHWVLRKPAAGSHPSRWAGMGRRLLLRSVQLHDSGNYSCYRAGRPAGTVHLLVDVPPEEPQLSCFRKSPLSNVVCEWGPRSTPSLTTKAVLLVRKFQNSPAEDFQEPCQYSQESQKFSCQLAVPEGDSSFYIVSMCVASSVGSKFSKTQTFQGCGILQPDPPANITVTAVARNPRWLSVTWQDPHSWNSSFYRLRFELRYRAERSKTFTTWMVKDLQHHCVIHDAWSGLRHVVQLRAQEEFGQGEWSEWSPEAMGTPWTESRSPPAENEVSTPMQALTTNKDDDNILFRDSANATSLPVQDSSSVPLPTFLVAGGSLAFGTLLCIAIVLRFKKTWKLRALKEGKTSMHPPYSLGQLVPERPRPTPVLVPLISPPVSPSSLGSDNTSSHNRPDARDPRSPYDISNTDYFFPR

B1: 6RC1IgG_012 (antibody, V domains shown)
VH: QVQLVQSGAEVKKPGASVKVSCKASGYTFTSYGISWVRQAPGQGLEWMGWISAYNGNTNYAQKLQGRVTMTTDTSTSTAYMELRSLRSDDTAVYYCARATYYYDSSAPAFDIWGQGTMVTVSS
VL: DIQMTQSPSSLSASVGDRVTITCRASQSIEDDLAWYQQKPGKAPKLLIYEASTLQSGVPSRFSGSGSGTDFTLTISSLQPEDFATYYCQQHDDSPLTFGQGTKVEIKR
B2: 6RpH #03 (antibody, human IgG1, kappa, V domains shown)
VH: EVQLVQSGGGLVQPGGSLRLSCAASGFTFSNAWMIWVRQAPGKGLEWVGRIKSKVDGGTTDYAAPVKGRFTISRDDSKNTLYLQMDSLKTEDTAVYYCVADVPASNPYGFDYWGQGTLVTVSS
VL: DIQMTQSPSSLSASVGDRVTITCRASQSINSHLNWYQQKPGKAPKLLIYDASHLQSGVPSRFSGSGSGTDFTLTISSLQPEDFATYYCQQHNNYPLTFGQGTKVEIKR

Assays:
[1] = molecular target: soluble human IL-6 receptor (human) (UniProt P08887); experiment: SPR (Biacore T100), antibody captured on Protein A/G, pH 7.4, 37°C
[2] = molecular target: soluble human IL-6 receptor (human) (UniProt P08887); experiment: SPR (Biacore T100), antibody captured on Protein A/G on a CM5 chip, human IL-6 receptor injected for 3 min, […] CaCl2, pH 7.4, 37 C
[3] = molecular target: soluble human IL-6 receptor (human) (UniProt P08887); experiment: SPR (Biacore T100), antibody captured on Protein A/G on a CM5 chip, human IL-6 receptor injected for 3 min, 3 uM CaCl2, pH 7.4, 37 C
[4] = molecular target: soluble human IL-6 receptor (human) (UniProt P08887); experiment: SPR (Biacore T100), antibody captured on Protein A/G, […] Ca, 37°C
[5] = molecular target: soluble human IL-6 receptor (human) (UniProt P08887); experiment: SPR (Biacore T100), about 300 RU of antibody captured on Protein A/G on a CM5 chip, human IL-6 receptor injected for 3 min, pH 7.4, […] CaCl2, 37 C

Row | Binder | binding [1] | binding [2] | binding [3] | binding [4] | binding [5]
1 | B1 | binds | binds | binds | – | –
2 | B2 | – | – | – | binds | binds
